# These are yes or no findings as the source states them, for the method shown. For some assays here: Binding calls can cover weak binding; strength is not graded here. For some assays here: Binding seen in cells or lysates may run through a third protein. For some assays here: Sequences can lack the tags named with a protein.
# T1: MBP-Cnn-PA-N (D. melanogaster) (UniProt P54623)
# T1 sequence: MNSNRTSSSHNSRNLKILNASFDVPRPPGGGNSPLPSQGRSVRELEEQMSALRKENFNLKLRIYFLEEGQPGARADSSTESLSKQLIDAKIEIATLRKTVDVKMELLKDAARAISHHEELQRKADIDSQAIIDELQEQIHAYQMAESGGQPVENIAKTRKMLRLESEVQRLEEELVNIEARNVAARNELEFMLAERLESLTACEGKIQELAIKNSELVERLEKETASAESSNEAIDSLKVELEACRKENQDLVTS
# B1: N-terminal extension (NTE) region of Grip91 (aa1-231) (domain or fragment, UniProt Q9XYP8 1-231)
# chain: MSQDRIAGIDVATNSTDISNIINEMIICIKGKQMPEVHEKAMDHLSKMIAANSRVIRDSNMLTERECVQKIMKLLSARNKKEEGKTVSDHFNELYRKLTLTKCDPHMRHSLMTHLLTMTDNSDAEKAVASEDPRTQCDNLTQILVSRLNSISSSIASLNEMGVVNGNGVGAAAVTGAAAVTGAAAVTGAAAVTGAAASHSYDATQSSIGLRKQSLPNYLDATKMLPESRHD
# What was measured:
# [1] = target: T1, MBP-Cnn-PA-N (D. melanogaster); test: co-IP; purified MBP-Cnn fragments (2.5 μg/ml) added to embryo extract with or without sfGFP-Mzt1, 1 h at 4°C; anti-MBP antibodies on protein A Dynabeads overnight at 4°C; western blot; only the target purified
# [2] = target: Mzt1 (bait, pGBKT7-Mzt1) (D. melanogaster) (UniProt Q6ILY6); test: two-hybrid; Matchmaker Gold; Mzt1 as bait (pGBKT7, Y2HGold), Grip NTE fragments as prey (pGADT7, Y187); mated yeast spotted on DDO and QDO plates (QDO with aureobasidin A), both with X-α-Gal; 30°C, ~3 days
Molecule,binding [1],binding [2]
γ-tubulin (D. melanogaster (endogenous in embryos)),no binding (tested: 2.5 μg/ml),
B1,,binds weakly

# Source: PMC6065531
